Some results were stated once for a whole list of compounds, not compound by compound. At least one structure is not confirmed: it was looked up by name or label, or the drawing left a doubt. Starred links: 1 amine or outer side, 2 acyl side, 3 side chain; linkers in the order of their positions; H or OH if unused. Residues, ends and D or L forms follow the SMILES beside them. Groups on a side chain read outwards from the residue. *: point of attachment. C20 diacid = O=C(O)CCCCCCCCCCCCCCCCCCC(=O)*; γGlu = O=C(O)[C@H](CCC(=O)[*:2])N[*:1]; AEEA = NCCOCCOCC(=O)O
Target: T1, human CRHR1 (Homo sapiens, UniProt P34998)
T1 construct: which expresses endogenous human CRHR1; host or cells: Y79 human retinoblastoma cells
T1 sequence (P34998 24-415): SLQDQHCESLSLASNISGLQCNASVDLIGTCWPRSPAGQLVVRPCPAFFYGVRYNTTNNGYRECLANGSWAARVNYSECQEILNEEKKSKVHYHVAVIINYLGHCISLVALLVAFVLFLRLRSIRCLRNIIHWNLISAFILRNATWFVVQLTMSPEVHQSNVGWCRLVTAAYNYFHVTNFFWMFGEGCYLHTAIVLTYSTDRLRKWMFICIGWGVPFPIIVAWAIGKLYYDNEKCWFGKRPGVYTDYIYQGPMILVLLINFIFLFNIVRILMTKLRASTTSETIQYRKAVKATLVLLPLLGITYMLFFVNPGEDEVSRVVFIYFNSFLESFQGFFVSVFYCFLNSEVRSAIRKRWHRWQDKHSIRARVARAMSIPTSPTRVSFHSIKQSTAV
Assay: human CRHR1 cell-based cAMP assay (Y79 cells)
Settings: statement in words; cAMP assays
Description: CRHR agonistic activity is measured in a cell-based cAMP assay. Serial dilutions of the test peptides are made in assay buffer containing Hank's Balanced Salt Solution (HBSS, without phenol red) supplemented with 20 mM HEPES and 0.05% lactalbumin enzymatic hydrolysate (LAH) (“assay buffer”). The highest concentration that is used starts from 1 μM in the human CRHR2b, whereas 100 μM starting concentration is used in the human CRHR1 assay. A one to three dilution of the test peptides is used in both assays.
The human Retinoblastoma cell line Y79 (ATCC #HTB-18), which expresses endogenous human CRHR1, is used in the human CRHR1 assay. […]
The cells are dispensed into Costar 96-well black polystyrene half area EIA/RIA plates (Corning Incorporated, Corning, N.Y.) followed by the addition of the diluted peptides, each at a volume of 20 μL. The agonist induced cAMP levels are detected using a HTRF cAMP Dynamic 2 kit (CisBio, Bedford, Mass.). […] HTRF detection is performed on an Envision plate reader (Perkin Elmer Life and Analytical Sciences, Waltham, Mass.) by measuring ratiometric emission at 620 and 665 nm after excitation at 320 nm.
The data are converted to picomoles of cAMP using a standard curve obtained from the same assay performed with varying concentrations of unlabeled cAMP. […] The data are analyzed using a Curve Fitting Tool to calculate ED50. […]

Question: Which “selectivity for CRHR2 over CRHR1” value does the source give for CC[C@H](C)[C@H](NC(C)=O)C(=O)N[C@H](C(=O)N[C@@H](CC(C)C)C(=O)N[C@@H](CO)C(=O)N[C@@H](CC(C)C)C(=O)N[C@@H](CC(=O)O)C(=O)N[C@H](C(=O)N1CCC[C@H]1C(=O)N[C@H](C(=O)NCC(=O)N[C@@H](CC(C)C)C(=O)N[C@@H](CC(C)C)C(=O)N[C@@H](CCC(N)=O)C(=O)N[C@H](C(=O)N[C@@H](CC(C)C)C(=O)N[C@@H](CC(C)C)C(=O)N[C@@H](CCC(=O)O)C(=O)N[C@@H](CCC(N)=O)C(=O)N[C@@H](CCC(=O)O)C(=O)N[C@@H](CCCCN)C(=O)N[C@@H](CCC(N)=O)C(=O)N[C@@H](CCC(=O)O)C(=O)N[C@@H](CCCCN)C(=O)N[C@@H](CCC(=O)O)C(=O)N[C@@H](CCCCN)C(=O)N[C@@H](CCC(N)=O)C(=O)N[C@@H](CCC(N)=O)C(=O)N[C@@H](C)C(=O)N[C@@H](CCCCNC(=O)COCCOCCNC(=O)COCCOCCNC(=O)CC[C@H](NC(=O)CC[C@H](NC(=O)CCCCCCCCCCCCCCCCCCC(=O)O)C(=O)O)C(=O)O)C(=O)N[C@H](C(=O)N[C@@H](CC(N)=O)C(=O)N[C@@H](C)C(=O)N[C@@H](CCC(N)=O)C(=O)N[C@H](C(=O)N[C@@H](CC(C)C)C(=O)N[C@@H](C)C(=O)N[C@@H](CCC(N)=O)C(=O)N[C@H](C(N)=O)C(C)C)[C@@H](C)CC)[C@@H](C)O)[C@@H](C)CC)[C@@H](C)CC)C(C)C)C(C)C [Example 2] (Ac-IVLSLDVPIGLLQILLEQEKQEKEKQQAK([AEEA-AEEA-γGlu-γGlu-C20 diacid])TNAQILAQV-NH2) here?
Answer: selective for CRHR2, over CRHR1
